This is an account of results in patent publication US7314866B2, “Ku-70-derived Bax-suppressing peptides and use thereof for the protection of damaged cells” (Bloodcenter of Wisconsin, Inc., priority 2002, dated 2008).

Where a SMILES comes first, the peptide text is derived from it. The star is where a group is joined. FITC = O=C1OC2(c3ccc(O)cc3Oc3cc(O)ccc32)c2ccc(NC(=S)*)cc21

For this series, the system named is HeLa cells and Du145 cells. Put plainly: Fluorescent microscopy of FITC-labeled peptide localization. The class given is cell-based, human.

On to `CSCC[C@H](NC(=O)[C@@H]1CCCN1C(=O)[C@@H](NC(=S)Nc1ccc2c(c1)C(=O)OC21c2ccc(O)cc2Oc2cc(O)ccc21)C(C)C)C(=O)N[C@@H](CC(C)C)C(=O)N[C@@H](CCCCN)C(=O)O` [FITC-labeled BIP] ({FITC}-VPMLK-OH; N-terminus and C-terminus assumed), for which the “Subcellular localization of the peptide” value (Bax-deficient Du145 cells) was “distributed in both the cytosol and the nucleus”; the “Subcellular localization of the peptide” value (HeLa cells) is “localized mostly in the cytosol”.
